The source of these data is publication PMC3796550.

Sequences of proteins named here, by UniProt entry; tags and fusion partners are left off. A change or cut given only in a name is not applied to a line headed by its entry.
UniProt P06239: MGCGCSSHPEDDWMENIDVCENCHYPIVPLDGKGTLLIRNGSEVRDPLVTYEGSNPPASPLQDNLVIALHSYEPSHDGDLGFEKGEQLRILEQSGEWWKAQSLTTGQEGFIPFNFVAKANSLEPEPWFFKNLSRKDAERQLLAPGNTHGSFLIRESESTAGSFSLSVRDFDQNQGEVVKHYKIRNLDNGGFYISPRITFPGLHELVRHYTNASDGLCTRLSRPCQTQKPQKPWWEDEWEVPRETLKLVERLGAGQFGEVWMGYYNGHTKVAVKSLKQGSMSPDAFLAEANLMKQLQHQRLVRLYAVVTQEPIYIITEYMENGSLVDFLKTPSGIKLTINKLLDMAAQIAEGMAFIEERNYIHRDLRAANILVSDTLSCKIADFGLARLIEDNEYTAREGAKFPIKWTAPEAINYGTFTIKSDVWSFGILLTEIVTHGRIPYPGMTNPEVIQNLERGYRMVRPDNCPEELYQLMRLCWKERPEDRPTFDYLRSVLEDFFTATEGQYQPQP
UniProt Q9BZS1: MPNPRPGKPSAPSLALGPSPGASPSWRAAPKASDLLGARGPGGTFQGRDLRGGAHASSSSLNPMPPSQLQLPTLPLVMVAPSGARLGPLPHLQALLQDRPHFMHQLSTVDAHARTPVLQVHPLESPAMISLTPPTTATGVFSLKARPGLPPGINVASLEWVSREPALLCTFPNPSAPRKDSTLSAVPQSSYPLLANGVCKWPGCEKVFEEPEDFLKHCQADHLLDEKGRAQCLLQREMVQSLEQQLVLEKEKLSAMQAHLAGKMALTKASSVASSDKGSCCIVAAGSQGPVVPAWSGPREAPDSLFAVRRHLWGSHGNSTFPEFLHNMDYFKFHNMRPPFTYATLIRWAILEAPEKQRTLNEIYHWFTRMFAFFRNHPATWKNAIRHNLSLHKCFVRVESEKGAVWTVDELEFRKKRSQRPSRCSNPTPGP

Results are given in words; binding and its absence hold for the method and conditions named. Binding seen in cells or lysates may run through a third protein. Some binding calls cover weakened binding; strength is not graded here.

One assay deals with LCK Y505F (human) (UniProt P06239). Put plainly: co-IP; lysates of transfected cells (MCF-7) immunoprecipitated with anti-Myc antibody, immunoblotted with anti-Myc and anti-FLAG. Background: In western blotting, separated proteins are transferred to a membrane and probed.
Assay [1] concerns the target LCK (pcDNA4/myc-His) (human) (UniProt P06239). The description is as above.

Turning to FOXP3-FLAG (from UniProt Q9BZS1 1-431), the binding result (with LCK Y505F (human); in assay [1]) was “binds” each time.
